Binding data for 1 molecule are collected here from article PMC4726654.

For the experiment, the target named is T1, Tudor-SN (Tudor staphylococcal nuclease) (Drosophila melanogaster (endogenous in 0-12 h w1118 embryos)) (UniProt Q9W0S7).
T1 sequence: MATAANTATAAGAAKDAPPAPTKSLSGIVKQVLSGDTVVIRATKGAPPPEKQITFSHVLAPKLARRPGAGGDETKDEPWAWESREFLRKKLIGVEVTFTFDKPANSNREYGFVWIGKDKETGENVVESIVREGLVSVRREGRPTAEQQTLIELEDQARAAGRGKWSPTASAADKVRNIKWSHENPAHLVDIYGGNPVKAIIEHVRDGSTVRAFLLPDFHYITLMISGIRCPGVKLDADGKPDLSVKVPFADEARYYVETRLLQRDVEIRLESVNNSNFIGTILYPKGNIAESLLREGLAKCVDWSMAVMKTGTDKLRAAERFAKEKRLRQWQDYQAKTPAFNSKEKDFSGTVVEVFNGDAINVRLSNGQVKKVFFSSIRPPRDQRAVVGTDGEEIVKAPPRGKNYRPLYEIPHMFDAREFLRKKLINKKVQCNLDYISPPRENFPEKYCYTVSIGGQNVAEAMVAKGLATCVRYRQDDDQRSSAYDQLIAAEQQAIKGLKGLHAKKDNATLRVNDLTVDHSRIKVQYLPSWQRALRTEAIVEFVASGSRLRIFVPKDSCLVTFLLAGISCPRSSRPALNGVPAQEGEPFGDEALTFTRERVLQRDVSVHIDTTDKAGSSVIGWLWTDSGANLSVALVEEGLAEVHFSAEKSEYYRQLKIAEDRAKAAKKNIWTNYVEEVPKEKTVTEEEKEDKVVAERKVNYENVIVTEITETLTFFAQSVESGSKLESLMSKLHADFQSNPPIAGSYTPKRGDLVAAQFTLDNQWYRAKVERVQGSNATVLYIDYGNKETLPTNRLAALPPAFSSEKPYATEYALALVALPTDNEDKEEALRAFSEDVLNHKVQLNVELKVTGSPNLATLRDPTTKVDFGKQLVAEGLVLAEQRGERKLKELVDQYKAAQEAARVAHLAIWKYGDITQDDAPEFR
Description: co-IP; cytoplasmic extract of 0-12 h w1118 embryos, 1 mg protein in 1 ml H(0.15) buffer (25 mM HEPES-NaOH pH 7.8, 150 mM NaCl, 0.02% NP-40, 20% glycerol), 4°C; monoclonal mouse anti-Piwi or anti-TSN antibody, Protein A/G agarose; Western blot; IgG as control.

These are yes or no findings as the source states them, for the method shown. Binding seen in cells or lysates may run through a third protein. Some results given as binding are weak or reduced against the parent protein; the word gives no strength.

B1: Piwi (protein, UniProt Q9VKM1 1-843)
chain: MADDQGRGRRRPLNEDDSSTSRGSGDGPRVKVFRGSSSGDPRADPRIEASRERRALEEAPRREGGPTERKPWGDQYDYLNTRPAELVSKKGTDGVPVMLQTNFFRLKTKPEWRIVHYHVEFEPSIENPRVRMGVLSNHANLLGSGYLFDGLQLFTTRKFEQEITVLSGKSKLDIEYKISIKFVGFISCAEPRFLQVLNLILRRSMKGLNLELVGRNLFDPRAKIEIREFKMELWPGYETSIRQHEKDILLGTEITHKVMRTETIYDIMRRCSHNPARHQDEVRVNVLDLIVLTDYNNRTYRINDVDFGQTPKSTFSCKGRDISFVEYYLTKYNIRIRDHNQPLLISKNRDKALKTNASELVVLIPELCRVTGLNAEMRSNFQLMRAMSSYTRMNPKQRTDRLRAFNHRLQNTPESVKVLRDWNMELDKNVTEVQGRIIGQQNIVFHNGKVPAGENADWQRHFRDQRMLTTPSDGLDRWAVIAPQRNSHELRTLLDSLYRAASGMGLRIRSPQEFIIYDDRTGTYVRAMDDCVRSDPKLILCLVPNDNAERYSSIKKRGYVDRAVPTQVVTLKTTKNRSLMSIATKIAIQLNCKLGYTPWMIELPLSGLMTIGFDIAKSTRDRKRAYGALIASMDLQQNSTYFSTVTECSAFDVLANTLWPMIAKALRQYQHEHRKLPSRIVFYRDGVSSGSLKQLFEFEVKDIIEKLKTEYARVQLSPPQLAYIVVTRSMNTRFFLNGQNPPPGTIVDDVITLPERYDFYLVSQQVRQGTVSPTSYNVLYSSMGLSPEKMQKLTYKMCHLYYNWSGTTRVPAVCQYAKKLATLVGTNLHSIPQNALEKKFYYL
For B1, the binding result is listed as “binds”.
